# Reference: PubChem BioAssay AID504834 (National Center for Advancing Translational Sciences (NCATS), 2011)
# The campaign covered roughly 320,000 compounds. About 22,000 (6.9%) were called active. The shares of active, inactive and inconclusive entries below differ from those in the screen. Calls follow the shape of the dose curve; as a rule, active = well fitted inhibition curve with a large enough effect; inconclusive = small, poorly fitted or top-dose-only effect, or another doubt; inactive = no such curve, though single readings can be large or run the other way. A potency beside an inconclusive call is a rough fit, not a confirmed value.
# Assay: Primary qHTS for delayed death inhibitors of the malarial parasite plastid, 96 hour incubation
# Conditions: P. falciparum luciferase reporter growth; series mostly up to 28.7 µM
# Procedure, shortened: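 Parasite growth measured via integrated firefly luciferase reporter in P. falciparum. Infected erythrocytes at 2% hematocrit, 0.05% parasitemia final were treated 96 hours at 37 C under 5% CO2, and luminescence was read.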
# Potency is read from the fitted curve at half-maximal effect.
row,Structure (SMILES),Potency
1,O=C(CCCn1c(=O)[nH]c2cc(Cl)ccc2c1=O)NC1CCCCCCC1,"inconclusive: 18.5 µM [inhibitor, single point]"
2,Cc1cccc(OCCCc2c(C)n[nH]c2C)c1,inactive
3,N#Cc1ccc(OCc2noc(-c3ccsc3)n2)cc1,inactive
4,Nc1ccc2nn(-c3ccc(F)cc3)nc2c1,"inconclusive: 0.828 µM [inhibitor, full curve, poor fit]"
5,CCn1cc(C(=O)OC)c(=O)c2ccc(C)nc21,"inconclusive: 5.86 µM [inhibitor, single point]"
6,O=C1c2ccccc2CC1Sc1nnc(-c2ccccn2)o1 (centres undefined),active: 13.1 µM
7,COc1ccc(-n2nc(C(=O)NCC(=O)N3CCC(C)CC3)c3ccccc3c2=O)cc1Cl,inactive
8,COc1ccc(/C=C(\NC(=O)c2ccco2)C(=O)NC(Cc2ccccc2)C(=O)O)cc1 (centres undefined),"inconclusive: 0.233 µM [inhibitor, full curve, poor fit]"
9,CCOC(=O)C1(CCOc2ccccc2)CCN(C2Cc3ccccc3C2)CC1,"inconclusive: 0.0037 µM [inhibitor, full curve, poor fit]"
10,Cc1ccc(S(=O)(=O)Nc2ccccc2C(=O)N2CCN(C)CC2)cc1,inactive
11,Cc1cc(NC(=O)CCC(=O)N(c2cccnc2)C(C(=O)NC2CCCC2)c2ccccc2)no1 (centres undefined),inactive
12,CCC(C)NS(=O)(=O)c1ccc(-c2csnn2)s1 (centres undefined),inactive
13,CCC1CCCCN1CCCNC(=O)c1ccc(CS(=O)(=O)c2ccc(Br)cc2)o1 (centres undefined),"inconclusive: 2.33 µM [inhibitor, full curve]"
14,CC1CCN(C(=O)c2cc3c(=O)n4ccccc4nc3s2)CC1,"inconclusive: 6.57 µM [inhibitor, partial curve]"
15,Cn1c(=O)[nH]c(=O)c2c1nc(SCC(=O)Nc1ccccc1)n2Cc1ccccc1,active: 9.28 µM
16,O=C(O)CCCCCN1C(=O)/C(=C\c2ccc(-c3ccc(Cl)cc3)o2)SC1=S,inactive
17,CCn1c(CN2C(=O)CSc3ccccc32)n[nH]c1=S,"inconclusive: 0.0033 µM [inhibitor, full curve, poor fit]"
18,COc1ccc(CNC(=O)c2ccc3c(=O)n4c(nc3c2)CCCCC4)cc1OC,"inconclusive: 3.7 µM [inhibitor, partial curve, poor fit]"
19,Cc1cccc(NC(=O)CN2CCN(C(=O)C(C)Oc3ccc(C#N)cc3)CC2)c1C (centres undefined),"inconclusive: 5.86 µM [inhibitor, single point]"
20,Cn1cccc1C(=O)C(=O)Nc1ccc(Cl)cc1,inactive
21,CCN(CC)c1cc(NCCO)c([N+](=O)[O-])c2nonc12,"inconclusive: 13.1 µM [inhibitor, single point]"
22,CCOC(=O)/C(C#N)=C1\SS/C(=C(/C#N)C(=O)OCC)S1,inactive
23,Cc1ccc2c(C)c(C(=O)Nc3ccc(S(=O)(=O)Nc4onc(C)c4C)cc3)oc2c1,active: 9.28 µM
24,O=C(CNC(=O)c1cccc(F)c1)OCC(=O)N1CCN(C(=O)c2ccco2)CC1,inactive
25,O=C(CN1CCN(S(=O)(=O)c2cccc(Br)c2)CC1)N1CCCCC1,inactive

# Individual results from the list:
# Under Potency, `N#Cc1ccc(OCc2noc(-c3ccsc3)n2)cc1` is entered as inactive
# Under Potency, `O=C(O)CCCCCN1C(=O)/C(=C\c2ccc(-c3ccc(Cl)cc3)o2)SC1=S` is entered as inactive
# Under Potency, `CCn1cc(C(=O)OC)c(=O)c2ccc(C)nc21` is entered as inconclusive: 5.86 µM [inhibitor, single point]
# Under Potency, `CCC(C)NS(=O)(=O)c1ccc(-c2csnn2)s1` (centres undefined) is entered as inactive

# Following part:

row,Structure (SMILES),Potency
1,CC12CN3CC(C)(CN(C1)C3c1ccc3c(c1)OCO3)C2O (centres undefined),inactive
2,N/C(=N\OC(=O)c1cccc(F)c1)c1ccccc1,"inconclusive: 13.1 µM [inhibitor, partial curve]"
3,COCCn1cc(C(=O)NCc2cccs2)c2c3ccccc3n(C)c2c1=O,"inconclusive: 5.86 µM [inhibitor, partial curve, poor fit]"
4,Cc1cc(Cl)n2c(nc3cc(F)c(F)cc32)c1C#N,"inconclusive: 1.65 µM [inhibitor, full curve, poor fit]"
5,Cc1ccc(CNC(=O)CCNS(=O)(=O)c2cccc3nsnc23)cc1,inactive
6,O=C(CSc1nc2ccccc2nc1SCC(=O)N1CCOCC1)N1CCOCC1,"inconclusive: 18.5 µM [inhibitor, single point]"
7,COc1cc(CNc2ncnc3c2[nH]c2ccc(C)cc23)cc(OC)c1,"inconclusive: 1.65 µM [inhibitor, partial curve, poor fit]"
8,Cc1ccc(S(=O)(=O)c2nc(-c3ccco3)oc2SCC(N)=O)cc1,"inconclusive: 5.22 µM [inhibitor, partial curve]"
9,c1ccc2c(c1)CCN(c1nc(CN3CCOCC3)nc3sc4c(c13)CCCC4)C2,"inconclusive: 2.94 µM [inhibitor, full curve]"
10,Cc1oc(C(C)(C)C)cc1C(=O)N1CCN(c2ncccc2C(F)(F)F)CC1,"inconclusive: 18.5 µM [inhibitor, single point]"
11,O=C1C=C(N2CCOCC2)C2(CCCCC2)O1,inactive
12,Nc1cc([N+](=O)[O-])cc2oc(-c3ccccc3)cc12,inactive
13,CSCC[C@H](NC(=O)COc1ccc(Cl)cc1)c1nc2ccccc2[nH]1,"inconclusive: 9.28 µM [inhibitor, single point]"
14,CC(=O)N1CCOc2ccc(S(=O)(=O)Nc3ncccc3C)cc21,"inconclusive: 18.5 µM [inhibitor, single point]"
15,COc1ccc(S(=O)(=O)N2CCC(C(=O)NCCc3c[nH]c4ccccc34)CC2)cc1,"inconclusive: 10.4 µM [inhibitor, single point]"
16,Cc1cccc(OCCCC(=O)Nc2ccc(Br)cc2)c1,inactive
17,O=c1[nH]c(C2CCCN(S(=O)(=O)c3ccc(F)cc3)C2)nc2c1nnn2Cc1ccc(F)cc1 (centres undefined),inactive
18,Nc1nc(O)c(N=Nc2ccc(S(N)(=O)=O)cc2)c(=O)[nH]1,inactive
19,CCOC(=O)C1CCN(CCC(=O)Nc2ccccc2)CC1,"inconclusive: 18.5 µM [inhibitor, single point]"
20,Cc1nn(C)cc1CNC(=O)Nc1ccc(Br)cc1Cl,"inconclusive: 11.7 µM [inhibitor, partial curve, poor fit]"
21,COc1ccc(-c2cccc(NS(=O)(=O)c3ccc([N+](=O)[O-])cc3)c2)nn1,"inconclusive: 3.7 µM [inhibitor, single point]"
22,Cc1ccccc1C(=O)NC(=S)Nc1ccccc1C(F)(F)F,"inconclusive: 1.04 µM [inhibitor, partial curve, poor fit]"
23,CN(Cc1ccccc1)C1(CNC(=O)CCC(F)(F)F)Cc2ccccc2C1,active: 14.7 µM
24,CCCCOC(=O)c1ccc(N=Nc2c(C)c(C#N)c(O)[nH]c2=O)cc1,inactive
25,CCN(CC)CCCNc1nc(SC)nc2sc3c(c12)CCN(C)C3,"inconclusive: 18.5 µM [inhibitor, single point]"

row,Structure (SMILES),Potency
1,OC1(c2ccccc2)Cc2cccc[n+]2C1c1ccccc1 (centres undefined),"inconclusive: 5.86 µM [inhibitor, partial curve, poor fit]"
2,O=C(CCn1cccn1)N1CCCC(N2CCN(c3cccc(Cl)c3)CC2)C1 (centres undefined),inactive
3,Cc1csc(CNc2ncnc3ccc(-c4cccnc4)cc23)c1,active: 10.4 µM
4,CCOc1cc(CNc2ccccc2)cc(Br)c1OCC(=O)NC(C)(C)C,active: 9.28 µM
5,O=C(CSc1nnc(CNC(=O)c2ccco2)o1)Nc1cccc(F)c1,inactive
6,Cc1ccc(C(=O)CN2C(=O)NC3(CCc4ccccc43)C2=O)s1 (centres undefined),"inconclusive: 4.65 µM [inhibitor, partial curve]"
7,CCN(CCCn1c(=S)[nH]c2ncccc2c1=O)c1ccccc1,"inconclusive: 11.7 µM [inhibitor, single point]"
8,CC1CCCCN1S(=O)(=O)c1ccc2c(c1)CCN2C(=O)C1CCC1 (centres undefined),"inconclusive: 18.5 µM [inhibitor, single point]"
9,CSc1cccc(NC(=O)Nc2ccc(Cl)cc2)c1,"inconclusive: 0.928 µM [inhibitor, partial curve, poor fit]"
10,CCOC(=O)c1ccc(CNCc2ccccc2)cc1,inactive
11,COc1ccc(C(=O)/C=C/Nc2c(C)n(C)n(-c3ccccc3)c2=O)cc1OC,inactive
12,CC(C)(C)N1C(=O)[C@H]2[C@@H](c3ccc(Br)cc3)N3C(=O)N(c4cccc(Br)c4)C(=O)[C@@]3(Cc3ccccc3)[C@H]2C1=O,"inconclusive: 1.47 µM [inhibitor, partial curve]"
13,CSc1nc2ccc(NC(=O)C3CCCO3)cc2s1 (centres undefined),"inconclusive: 4.65 µM [inhibitor, partial curve]"
14,OCC1(Cc2cccc(Cl)c2)CCCN(Cc2ccc(F)c(F)c2)C1 (centres undefined),"inconclusive: 8.28 µM [inhibitor, single point]"
15,CCOc1ccc2[nH]c(=O)c(CN(CCCO)C(C)=O)cc2c1,"inconclusive: 10.4 µM [inhibitor, partial curve, poor fit]"
16,Cc1nc2sc(C(c3ccco3)N3CCC(C)CC3)c(O)n2n1 (centres undefined),inactive
17,COc1cccc(NC(=O)c2nnn(CC(=O)Nc3cc(C)cc(C)c3)c2N)c1,inactive
18,O=C(/C=C/c1ccc(OCCCF)cc1)NCc1cccc(Cl)c1,"inconclusive: 13.1 µM [inhibitor, single point]"
19,COc1ccc2c(CC(=O)NNC(=O)c3cccs3)coc2c1,inactive
20,Cc1ccc2nc(COc3ccc(N(C)S(=O)(=O)c4ccccc4)cc3)cc(=O)n2c1,active: 10.4 µM
21,Cc1cc(C)n2nc(SCC(=O)N(C)c3ccccc3)nc2n1,"inconclusive: 18.5 µM [inhibitor, partial curve, poor fit]"
22,CN(C)CCCN(C(=O)COc1ccc(Cl)cc1)c1nc2ccc(F)cc2s1,"inconclusive: 18.5 µM [inhibitor, single point]"
23,O=C(O)CC1S/C(=N\N=C2\C(=O)Nc3ccccc32)N(c2ccc(O)cc2)C1=O (centres undefined),inactive
24,Cc1cc(C)n(CC(=O)N/N=C/c2ccc3c(c2)OCO3)n1,active: 3.7 µM
